The record followed here is ChEMBL document CHEMBL1926568, “Synthesis, biological evaluation and mechanistic studies of totarol amino alcohol derivatives as potential antimalarial agents” (Bioorg Med Chem, 2012).

Assay [1] deals with Plasmodium falciparum. Kind of assay: Resistance index, ratio of IC50 for chloroquine-resistant Plasmodium falciparum K1 to IC50 for chloroquine-sensitive Plasmodium falciparum D10. Type of assay: functional. In a few lines: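 Resistance index computed as IC50 (K1)/IC50 (D10), both from the pLDH assay, each run in duplicate on two separate occasions.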
For assay [2], the system named is Plasmodium falciparum. Description: Antiplasmodial activity against chloroquine-resistant Plasmodium falciparum K1 after 48 hrs by lactate dehydrogenase assay. The format is functional, organism-based. The conditions noted are these: K1, 48 h. In a few lines:
(§1)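 P. falciparum D10 (CQ-sensitive) and K1 (CQ-resistant) kept in continuous in vitro culture, synchronized with 5% D-sorbitol at ring stage when needed; growth read by parasite lactate dehydrogenase assay; each compound run in duplicate on two separate occasions.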

Assay [3] deals with Plasmodium falciparum. Kind of assay: Antiplasmodial activity against chloroquine-sensitive Plasmodium falciparum D10 after 48 hrs by lactate dehydrogenase assay. The format is functional, organism-based. The following applies: D10, 48 h. In a few lines: as §1
A further assay deals with CHO. Description: Cytotoxicity against CHO cells after 48 hrs by MTT assay. Type of assay: cell-based. The conditions noted are these: Cricetulus griseus. In a few lines: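 CHO cells in DMEM:Ham's (1:1) with 10% heat-inactivated FCS and gentamicin, 37 °C, 5% CO2; 1×10^4 cells/well seeded 24 h, then serial dilutions from DMSO stocks (100–0.01 µg/ml) for 48 h, with medium and DMSO controls.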

Structures are written as SMILES.

Usually IC50 stands for the point on the concentration scale where inhibition reaches its midpoint. A low value points to higher potency. For `CC(C)NCC(O)COc1cccc2ccccc12` (racemic) [PROPRANOLOL], the “Ratio IC50” value in the assay with Plasmodium falciparum [1] worked out at 0.27. For the same compound, the IC50 is 10.2 µM in the assay on Plasmodium falciparum [2], 37.7 µM with Plasmodium falciparum [3] and over 300 µM with CHO.
